{"source": "paper PMC7145526", "about": "“The mRNA repressor TRIM71 cooperates with Nonsense-Mediated Decay factors to destabilize the mRNA of CDKN1A/p21”", "binders": {"B1": {"name": "UPF1 (protein, UniProt Q92900 1-1129)", "chain": "MSVEAYGPSSQTLTFLDTEEAELLGADTQGSEFEFTDFTLPSQTQTPPGGPGGPGGGGAGGPGGAGAGAAAGQLDAQVGPEGILQNGAVDDSVAKTSQLLAELNFEEDEEDTYYTKDLPIHACSYCGIHDPACVVYCNTSKKWFCNGRGNTSGSHIVNHLVRAKCKEVTLHKDGPLGETVLECYNCGCRNVFLLGFIPAKADSVVVLLCRQPCASQSSLKDINWDSSQWQPLIQDRCFLSWLVKIPSEQEQLRARQITAQQINKLEELWKENPSATLEDLEKPGVDEEPQHVLLRYEDAYQYQNIFGPLVKLEADYDKKLKESQTQDNITVRWDLGLNKKRIAYFTLPKTDSGNEDLVIIWLRDMRLMQGDEICLRYKGDLAPLWKGIGHVIKVPDNYGDEIAIELRSSVGAPVEVTHNFQVDFVWKSTSFDRMQSALKTFAVDETSVSGYIYHKLLGHEVEDVIIKCQLPKRFTAQGLPDLNHSQVYAVKTVLQRPLSLIQGPPGTGKTVTSATIVYHLARQGNGPVLVCAPSNIAVDQLTEKIHQTGLKVVRLCAKSREAIDSPVSFLALHNQIRNMDSMPELQKLQQLKDETGELSSADEKRYRALKRTAERELLMNADVICCTCVGAGDPRLAKMQFRSILIDESTQATEPECMVPVVLGAKQLILVGDHCQLGPVVMCKKAAKAGLSQSLFERLVVLGIRPIRLQVQYRMHPALSAFPSNIFYEGSLQNGVTAADRVKKGFDFQWPQPDKPMFFYVTQGQEEIASSGTSYLNRTEAANVEKITTKLLKAGAKPDQIGIITPYEGQRSYLVQYMQFSGSLHTKLYQEVEIASVDAFQGREKDFIILSCVRANEHQGIGFLNDPRRLNVALTRARYGVIIVGNPKALSKQPLWNHLLNYYKEQKVLVEGPLNNLRESLMQFSKPRKLVNTINPGARFMTTAMYDAREAIIPGSVYDRSSQGRPSSMYFQTHDQIGMISAGPSHVAAMNIPIPFNLVMPPMPPPGYFGQANGPAAGRGTPKGKTGRGGRQKNRFGLPGPSQTNLPNSQASQDVASQPFSQGALTQGYISMSQPSQMSQPGLSQPELSQDSYLGDEFKSQIDVALSQDSTYQGERAYQHGGVTGLSQY"}}, "target": "TRIM71 ΔNHL6 (human)", "assay": "co-IP; TRIM71 ΔNHL6 mutant (Supplementary Figure S8E); cells, tag and beads not stated for this experiment", "note": "Results are given in words; binding and its absence hold for the method and conditions named. Binding seen in cells or lysates may run through a third protein."}
{"binder": "B1", "values": [{"measurement": "binding", "value": "no binding"}]}
